Here are results for 42 sequences from article PMC7819943, “Rice protein-binding microarrays: a tool to detect cis-acting elements near promoter regions in rice”.

Sequences of proteins named here, by UniProt entry; tags and fusion partners are left off.
UniProt Q0JBA9, entry or part of it: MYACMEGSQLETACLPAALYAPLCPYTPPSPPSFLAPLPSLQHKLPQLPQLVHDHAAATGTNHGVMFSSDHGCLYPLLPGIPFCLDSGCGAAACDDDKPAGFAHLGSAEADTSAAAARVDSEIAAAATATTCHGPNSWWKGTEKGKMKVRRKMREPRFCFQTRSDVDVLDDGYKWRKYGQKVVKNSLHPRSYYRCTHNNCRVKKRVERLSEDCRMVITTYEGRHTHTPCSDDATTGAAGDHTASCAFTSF

Some of the results follow.

The assay concerns the target OsWRKY34 (Oryza sativa, UniProt Q0JBA9 1-250). The assay can be described thus: protein-binding microarray (RPBM); PBS, 2% BSA, 51.3 ng/ul salmon testes DNA, 50 uM zinc acetate, 200 nM TF, 25 C, 1 h; high values mean tight binding. Conditions: protein: recombinant; tags: N-terminal polyhistidine and DsRed monomer fusion (pET32a); label: CyDye5-dUTP incorporated in the synthesized complementary strand; 3' TTTTT single-stranded linker to array surface; dsDNA, one strand shown. The method, boiled down: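 Per-feature fluorescence intensity (arbitrary units), read on an Axon 4000B scanner, is the binding signal. Transcription factors carrying an N-terminal polyhistidine tag and DsRed fusion were expressed in E. coli BL21-CodonPlus and purified on Ni–NTA. A custom Agilent array, made double-stranded by primer extension with Cy5-dUTP and blocked with 2% BSA, was incubated with 200 nM protein in PBS, 2% BSA, salmon testes DNA and 50 µM zinc acetate at 25 °C for 1 h and then washed.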
Regarding “ATCTGTAGCCCGTTGCTTTTCTCTCTCTTCTTTTATCTCCCGGAGTCACCTAGTGCAG”, the binding signal was 13600 fluorescence intensity (a.u.).
The figure for “ACTCCACTGATCCACTCCATCGCCAATTCGCCGTATCAACCGGAGTCACCTAGTGCAG” is 10800 fluorescence intensity (a.u.); for “GATGTAAGTGGGGTGGATAAGTGGTTTTTTTTCCTGATAGCGGAGTCACCTAGTGCAG” it is 8040 fluorescence intensity (a.u.).
The figure for “GGCCCTTTCGCGTGGTCGTTTGTTGGCATCTATTATCCCACGGAGTCACCTAGTGCAG” is 12900 fluorescence intensity (a.u.); for “TTTAGGGTAGTCGGACTTTTTTTTTTTGCTTTTTCACTATCGGAGTCACCTAGTGCAG” it is 10400 fluorescence intensity (a.u.); for “CCTCTTCATCCAGTTCCACCGGCTGGCTTATGTATATTTCCGGAGTCACCTAGTGCAG” it is 9080 fluorescence intensity (a.u.).
With “AACTCACACACACGCTAATCAGCTCAACTCTTACAGCCTACGGAGTCACCTAGTGCAG” the figure was 9450 fluorescence intensity (a.u.); with “TCCCTCTCTCTCTCTCTCTTCGTTTCCGCGCGCGCGCGCGCGGAGTCACCTAGTGCAG”, 9340 fluorescence intensity (a.u.); with “CCCCGCGCCTTGATATTTGCAACTGCAAATTTGTCTATATCGGAGTCACCTAGTGCAG”, 9780 fluorescence intensity (a.u.).
Turning to “ACAATACCTGCTAGCTCATCTCCATCCTCTCTCACCACCACGGAGTCACCTAGTGCAG”, the binding signal is 8530 fluorescence intensity (a.u.).
Turning to “AGGGGTATGTTTAGTTTGCGTCAAAATTGGAAGTTTTGTTCGGAGTCACCTAGTGCAG”, the binding signal is 9040 fluorescence intensity (a.u.).
With “TCTTCTGGTCATCTCATCTGGTCATATGGGGTCTCGTTTGCGGAGTCACCTAGTGCAG” the figure was 13400 fluorescence intensity (a.u.).
With “TGTCTACTAGGTGTCATTGTCAATCTGTCATTGCACAACTCGGAGTCACCTAGTGCAG” the figure was 8340 fluorescence intensity (a.u.); with “CTTTAATCCTTAGCCCCAATCAGCGCCATACTGTTGTACTCGGAGTCACCTAGTGCAG”, 9660 fluorescence intensity (a.u.).
With “CACCATGTAAGTTTCTCCTCACTTTTTTTTCCCTCTTTGACGGAGTCACCTAGTGCAG” the figure was 9540 fluorescence intensity (a.u.); with “AAGATCCACCCGCCCGACCAGGTTTCGTTTCGATTTTTCTCGGAGTCACCTAGTGCAG”, 12300 fluorescence intensity (a.u.); with “AGTTTCTTCCCTTCGTCCTCGTCTCCTCGACCTCACCACCCGGAGTCACCTAGTGCAG”, 9770 fluorescence intensity (a.u.).
In the case of “GAAGAAATAAAGCTTCCACTCGCTCATACTTTCTGTGTTCCGGAGTCACCTAGTGCAG”, the binding signal was 10100 fluorescence intensity (a.u.).
With “GACGGACGATCGGTTCCCCATTTCGCTCCCATCGATCCCTCGGAGTCACCTAGTGCAG” the figure was 8220 fluorescence intensity (a.u.); with “TAATACACTAGCCCCAATGTTTGTTTGCCTAATCTACTCTCGGAGTCACCTAGTGCAG”, 9080 fluorescence intensity (a.u.).
The figure for “CGTGCTTATTTGATGTGGCGTTTGGGCCTTGGTTTAACCGCGGAGTCACCTAGTGCAG” is 9120 fluorescence intensity (a.u.).
The figure for “CTCCGTTATACGCGGGCACACTGTTAGTTGCTCCATTTTGCGGAGTCACCTAGTGCAG” is 8330 fluorescence intensity (a.u.); for “AATGTCGTGGCCTTTTATGGTGTTGTTCTTGATGGACCTGCGGAGTCACCTAGTGCAG” it is 8160 fluorescence intensity (a.u.); for “GACTTGTAAACTACGGTCTATTTCTTCACCTGCAATAATACGGAGTCACCTAGTGCAG” it is 8900 fluorescence intensity (a.u.).
As to “AATACTATTTTGGTTCTTTTTGGTTGCTAGAAATATATTTCGGAGTCACCTAGTGCAG”, the binding signal was 8860 fluorescence intensity (a.u.).
With “TGTCTATATCTGGTCCTGGTACATCATTGCACTTTATGTTCGGAGTCACCTAGTGCAG” the figure was 8880 fluorescence intensity (a.u.); with “CAACGGACAACCATCTCCCATACCGCGAACAGAGACAACTCGGAGTCACCTAGTGCAG”, 10200 fluorescence intensity (a.u.); with “ATGGAGTAATATTTCTCACCCCTTTTTCCCATGGTCACACCGGAGTCACCTAGTGCAG”, 8260 fluorescence intensity (a.u.).
For “TTAATACTCCAAATCGCTCAGTTCTTTTCTCATGATGATACGGAGTCACCTAGTGCAG”, the binding signal was 9220 fluorescence intensity (a.u.).
For “TGCTTGACTGTGAGTACTGTTTGGGAGGGAGAGTGGTAAACGGAGTCACCTAGTGCAG”, the binding signal was 9540 fluorescence intensity (a.u.).
The figure for “CTCCACTACTTGCATTGTTTATCTGCGTCATCGTTTCCTTCGGAGTCACCTAGTGCAG” is 9110 fluorescence intensity (a.u.); for “TGGGTGTGGGTACGGAGAGTGGAAACCCGTTGGGTCCATACGGAGTCACCTAGTGCAG” it is 8320 fluorescence intensity (a.u.); for “AGTTATTACTAATACAGTACTCTCCCTTTTGCTCTATCTTCGGAGTCACCTAGTGCAG” it is 12800 fluorescence intensity (a.u.).
With “ATTATTTGCCTTTCTTGTTGGAATTTATTTATTTTCAGCTCGGAGTCACCTAGTGCAG” the figure was 9290 fluorescence intensity (a.u.); with “CTGTCCTCTATCGATTGTTCTGACTTGGGTCACCATGTAACGGAGTCACCTAGTGCAG”, 8990 fluorescence intensity (a.u.); with “TTTTTACCTATACTGTCTATTGTTTTCTATGTCTCTCCCTCGGAGTCACCTAGTGCAG”, 9360 fluorescence intensity (a.u.).
In the case of “TTTACTCATGATTACGCTAATTATTCCACTCAATTCTCACCGGAGTCACCTAGTGCAG”, the binding signal is 9120 fluorescence intensity (a.u.).
Consider “TATATCACATTTAATTATTTTTCCCATGTTCTTGTTTTAACGGAGTCACCTAGTGCAG”, for which the binding signal was 9480 fluorescence intensity (a.u.).
As for “TAATATATCACTCATCCCGTATCCTATCCCATATTATTTCCGGAGTCACCTAGTGCAG”, the binding signal is 8830 fluorescence intensity (a.u.).
The figure for “ATAACTCGGGTCGGACTCGGACCTCAGGCCCACGTATTCCCGGAGTCACCTAGTGCAG” is 8400 fluorescence intensity (a.u.); for “CTCCCGGAGCTCGGCCGCCTCTTCACCTCCGACACCCGCGCGGAGTCACCTAGTGCAG” it is 8300 fluorescence intensity (a.u.).
The figure for “AGTACACTTTCTGATGCATTGTACCTTGAGTTTTAGGATGCGGAGTCACCTAGTGCAG” is 8460 fluorescence intensity (a.u.).
